# Laboratory results: PubChem BioAssay AID493014 (National Center for Advancing Translational Sciences (NCATS), 2011)
# The other results are listed elsewhere or left out. These are further read-outs of the screen, such as a control signal, another cell line or another target. No call is given for them. The list favours compounds with an active or inconclusive main result. Words in brackets tell the shape of the fitted curve; partial curves, single points and poor fits give uncertain potencies.
# Test: qHTS Assay to Find Inhibitors of Chronic Active B-Cell Receptor Signaling
# Conditions: ABC-DLBCL IkBa-CBG/CBR reporter, luminescence ratio (green luciferase fused to IkBa over red control in TMD8 lymphoma cells), 4 h
# In short: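 Cell line TMD8 (human ABC DLBCL), stably expressing tet-inducible CBG68-IkBa fusion and CBR; IMDM/0.5% FBS; cpd up to 46 uM; dox induction, 4 h, 37C/5% CO2; dual luminescence; green/red ratio; MG132 control.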
# [1] = measured here: CBR red luminescence, cell number
# [2] = measured here: IkBa-CBG green luminescence
Compound,AC50 [1],AC50 [2]
O=C(COC(=O)c1ccc(Oc2ccccc2)cc1)Nc1nnc(-c2ccccc2)o1,"29.1 µM [rising, single point]","29.1 µM [falling, single point]"
N#CC1(NC(=O)COC(=O)c2cc(O)c3ccccc3c2O)CCCCC1,"23.1 µM [falling, single point]",–
COc1ccc(CCN2CC(C(=O)NCCc3ccccc3)CC2=O)cc1OC (configuration not stated),"12.6 µM [rising, single point]",–
O=C(CC1SC(N2CCCCC2)=NC1=O)Nc1ccc(C(=O)Nc2ccccc2)cc1 (configuration not stated),"6.51 µM [rising, single point]",–
Cc1nc(C)c(CC(=O)N2CCc3c([nH]c4ccccc34)C2c2ccccn2)s1 (configuration not stated),"35.5 µM [falling, single point]",–
Cc1cccc(NC(=O)C2CCCN(S(=O)(=O)c3ccc4c(c3)oc(=O)n4C)C2)c1 (configuration not stated),"35.5 µM [falling, partial curve, poor fit]",–
S=C(NCCCN1CCOCC1)N1CCN(c2cccc(Cl)c2)CC1,"35.5 µM [falling, partial curve, poor fit]",–
Cc1ccc(C(=O)N/N=C\c2ccncc2)s1,"2.82 µM [rising, partial curve, poor fit]",–
Cc1ccc(C2CC(C(F)(F)F)n3nc(C(=O)NCc4c(C)nn(C)c4C)c(Cl)c3N2)cc1 (configuration not stated),"12.6 µM [falling, partial curve]",–
Nc1c(C(=O)Nc2ccc3c(c2)OCCO3)nnn1Cc1ccc(Br)cc1,"32.6 µM [rising, single point]",–
Cc1cc(C)n2nc(C(=O)Nc3ccc4c(c3)OCCO4)nc2n1,"29.1 µM [falling, single point]",–
CCCCC(=O)OCC(=O)Nc1cccc(S(=O)(=O)NC2=NCCCCC2)c1,"14.1 µM [falling, partial curve]",–
O=C(C(=O)N1CCN(c2cccc(Cl)c2)CC1)c1cn(CC(=O)N2CCOCC2)c2ccccc12,"35.5 µM [falling, partial curve, poor fit]",–
c1nc(N2CCCC2)c2[nH]cnc2n1,"1.84 µM [falling, full curve, poor fit]",–
O=C(c1ccc(Cl)cc1)N1CCCOC1,"29.1 µM [rising, single point]",–
CCOC(=O)Nc1c(C(=O)OC)[nH]c2cccc(OC)c12,"4.61 µM [rising, single point]",–
Cc1c(NC(=O)c2cc3c(s2)-c2ccccc2OC3)cccc1[N+](=O)[O-],"29.1 µM [falling, single point]",–
Cc1cccc(-n2nnc(C(=O)Nc3ccc(F)cc3)c2N)c1,"1.46 µM [falling, full curve]",–
O=C(NC1CCCCCCC1)c1ccco1,"6.51 µM [falling, partial curve, poor fit]",–
Cc1ccc(Nc2nc3ccccc3[nH]2)nc1,"16.4 µM [falling, partial curve, poor fit]",–
CC1C/C(=C\c2ccccc2[N+](=O)[O-])c2nc3ccccc3c(C(=O)O)c2C1 (configuration not stated),"20 µM [rising, single point]",–

Compound,AC50 [1],AC50 [2]
C/C(CC(=O)Nc1ccc(Cl)cc1Cl)=N\NC(=O)C(=O)N1CCCC1,"28.2 µM [falling, single point]",–
Cc1cccc(C)c1NC(=O)c1c[nH]c2ccccc12,"25.1 µM [rising, partial curve, poor fit]",–
Cc1ccc(N(CC(=O)Nc2cc(C)cc(C)c2)S(=O)(=O)c2c(C)noc2C)cc1,"7.08 µM [falling, full curve, poor fit]",–
NC(=O)c1ccccc1NC(=O)/C=C/c1ccccc1,"2.91 µM [falling, full curve]",–
c1ccc(-c2nnc(CN3CCN(C(c4ccccc4)c4ccccc4)CC3)o2)cc1,"3.16 µM [falling, partial curve]",–
CC(C)NC(=O)C(OC(=O)c1ccccc1)C(OC(=O)c1ccccc1)C(=O)O (configuration not stated),"0.355 µM [falling, full curve, poor fit]",–
O=c1oc(-c2cccs2)nc2sc3c(c12)CCCCC3,"0.282 µM [falling, full curve]",–
COc1cc(OC)cc(-c2nc3ccccc3c(=O)n2NC(=O)c2cccnc2Cl)c1,"20.6 µM [rising, partial curve, poor fit]",–
CCCn1nc(NC(=O)c2cccs2)c2cc3ccccc3nc21,"15.8 µM [falling, partial curve, poor fit]",–
Nc1ccc(-c2nc3nc(N)nc(N)c3nc2-c2ccc(N)cc2)cc1,"35.5 µM [falling, single point]",–
COc1cc(C(=O)Nc2ccc(C(=O)O)cc2)ccc1OC(C)=O,"12.6 µM [falling, partial curve, poor fit]",–
N#Cc1c(NC(=O)C2CCCO2)sc2c1CCCCC2 (configuration not stated),"11.2 µM [rising, partial curve, poor fit]",–
O=c1cc(CSc2nc3ccccc3c(=O)[nH]2)c2ccc(O)cc2o1,"35.5 µM [falling, single point]",–
COc1cc(NC(=O)CSc2nc3[nH]ncc3c(=O)n2-c2ccccc2C)cc(OC)c1OC,–,"20.6 µM [falling, partial curve, poor fit]"
CC1(c2ccc(Cl)cc2Cl)NC(=O)N(CC(=O)NC2CCCCC2)C1=O (configuration not stated),"1.16 µM [rising, partial curve]",–
Cc1nc2ccccc2c(=O)n1CCN1CCOCC1,"0.58 µM [falling, full curve, poor fit]",–
COCCNC(C)C(=O)C12CC3CC(CC(C3)C1)C2 (configuration not stated),"0.731 µM [rising, full curve, poor fit]",–
COC(=O)CSc1nc(C)c2ccc(OC)cc2n1,"5.17 µM [rising, full curve, poor fit]",–
Cc1ccc(C(=O)NNC(=O)c2ccccc2O)cc1S(=O)(=O)N1CCCCC1,"16.4 µM [falling, single point]",–
O=C(CSc1nc2c([nH]c3ccccc32)c(=O)n1-c1ccc(F)cc1)NCc1ccco1,"6.51 µM [falling, partial curve, poor fit]",–

# An excerpt of these results, tab-delimited:
Compound	AC50 [1]	AC50 [2]
O=C(CC1SC(N2CCCCC2)=NC1=O)Nc1ccc(C(=O)Nc2ccccc2)cc1 (configuration not stated)	6.51 µM [rising, single point]	–
S=C(NCCCN1CCOCC1)N1CCN(c2cccc(Cl)c2)CC1	35.5 µM [falling, partial curve, poor fit]	–
Cc1ccc(C(=O)N/N=C\c2ccncc2)s1	2.82 µM [rising, partial curve, poor fit]	–
Cc1ccc(C2CC(C(F)(F)F)n3nc(C(=O)NCc4c(C)nn(C)c4C)c(Cl)c3N2)cc1 (configuration not stated)	12.6 µM [falling, partial curve]	–
O=C(c1ccc(Cl)cc1)N1CCCOC1	29.1 µM [rising, single point]	–
Cc1cccc(C)c1NC(=O)c1c[nH]c2ccccc12	25.1 µM [rising, partial curve, poor fit]	–
COC(=O)CSc1nc(C)c2ccc(OC)cc2n1	5.17 µM [rising, full curve, poor fit]	–
O=C(CSc1nc2c([nH]c3ccccc32)c(=O)n1-c1ccc(F)cc1)NCc1ccco1	6.51 µM [falling, partial curve, poor fit]	–
